Source: paper PMC10716581

Chains of the proteins cited; added tags and fusions are not shown.
UniProt Q06609, whole entry Q242R: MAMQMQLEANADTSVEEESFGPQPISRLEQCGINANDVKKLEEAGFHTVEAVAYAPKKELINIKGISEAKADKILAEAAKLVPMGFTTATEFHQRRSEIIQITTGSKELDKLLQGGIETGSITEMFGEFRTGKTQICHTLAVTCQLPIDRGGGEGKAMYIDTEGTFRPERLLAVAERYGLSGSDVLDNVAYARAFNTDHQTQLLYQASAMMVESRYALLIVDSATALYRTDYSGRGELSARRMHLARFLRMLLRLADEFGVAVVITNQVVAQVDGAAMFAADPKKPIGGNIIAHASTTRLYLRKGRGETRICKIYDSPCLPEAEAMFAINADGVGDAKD

Biological target: RAD51-Q242R (human) (UniProt Q06609)
Test: EMSA
Conditions: 2 mM AMP-PNP, 10 mM Mg2+, 20 mM Hepes-NaOH pH 7.5, 0.1 mg/ml BSA, 1 mM DTT, 10 mM MgCl2, 150 mM KCl, 2 mM ATP or AMP-PNP or no nucleotide, 2.7 uM (nt) DNA, 37 C 10 min, 8% native PAGE in 1x TBE, recombinant protein, protein details: N-terminal His-tag removed with thrombin

Row | Sequence | binding result (label: 5'-Cy5 on strand 1) | binding signal (% ssDNA bound at 1 uM protein) (label: 5'-Cy5, single-stranded DNA)
1 | TAATACAAAATAAGTAAATGAATAAACAGAGAAAATAAAG (double strand) [Cy5-OL4/OL5 40-mer] | binds more weakly | 
2 | AAATCAATCTAAAGTATATATGAGTAAACTTGGTCTGACGTTACCAATGCTTAATCAGTGAGGCACCTATCTCAGCGATCTGTCTATTT [Cy5-OL2] |  | 55

For at least one entry, the source does not settle the construct or the ends of the probe. Weaker means in comparison with the reference protein, sequence or condition of that experiment. At least one verdict rests on a figure or table, not on a statement of the authors.
